Taken from: PubChem BioAssay AID652272 (Drosophila RNAi Screening Center, 2013)
The screen tested about 21,000 reagents; below is a random part of those that have a named target and a result. In the full data, 503 (2.4%) got an active call. 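Raw plate light values, not normalised; calls rest on replicate z-scores that were not deposited; hits include reporter decreases as well as increases.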 Names joined by + are all predicted targets of the reagent. Not stated in the record: the amount of reagent, the time to read-out.

Aim: 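Genome-wide knock-down search for components of Hedgehog signalling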 (primary screen)
System: Drosophila clone 8 (Cl8) cells
Reagent: long dsRNA against Drosophila genes
Measurement: 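Plate reader light from a firefly reporter under a ptc promoter fragment that responds to Hedgehog, with Renilla light as transfection reference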
Reading the numbers: firefly Hh reporter signal: higher = more ptc reporter light; Renilla reference signal: higher = more Renilla control light
Active means: 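Called a hit if the two-replicate mean z-score lies below -2 or above +3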
Calls: active = hit: reporter lowered or raised; inactive = not a hit

Against CG12016 + Dpm2 [DRSC08224], the values are firefly Hh reporter signal, replicate 1 = 70793; firefly Hh reporter signal, replicate 2 = 47456; Renilla reference signal, replicate 1 = 3365; Renilla reference signal, replicate 2 = 1607; inactive.
After knock-down of CG30395 [DRSC03896], the screen gave firefly Hh reporter signal, replicate 1 = 1.39e5; firefly Hh reporter signal, replicate 2 = 2.52e5; Renilla reference signal, replicate 1 = 3687; Renilla reference signal, replicate 2 = 11541; inactive.
Silencing of CG11608 [DRSC14334] came out at: firefly Hh reporter signal, replicate 1 = 84018; firefly Hh reporter signal, replicate 2 = 1.48e5; Renilla reference signal, replicate 1 = 3201; Renilla reference signal, replicate 2 = 4176; inactive.
Against Dap160 (Dynamin associated protein 160) [DRSC01834], the values are firefly Hh reporter signal, replicate 1 = 1.49e5; firefly Hh reporter signal, replicate 2 = 1.95e5; Renilla reference signal, replicate 1 = 3560; Renilla reference signal, replicate 2 = 9500; inactive.
Depletion of Dap160 (Dynamin associated protein 160) [DRSC03313] resulted in: firefly Hh reporter signal, replicate 1 = 62723; firefly Hh reporter signal, replicate 2 = 86020; Renilla reference signal, replicate 1 = 2792; Renilla reference signal, replicate 2 = 3115; inactive.
With knock-down of GstD2 (Glutathione S transferase D2) [DRSC16684], the screen gave firefly Hh reporter signal, replicate 1 = 81382; firefly Hh reporter signal, replicate 2 = 94848; Renilla reference signal, replicate 1 = 2588; Renilla reference signal, replicate 2 = 2662; inactive.
With knock-down of Glut1 (Glucose transporter 1) [DRSC07927], the screen gave firefly Hh reporter signal, replicate 1 = 81771; firefly Hh reporter signal, replicate 2 = 3.59e5; Renilla reference signal, replicate 1 = 2579; Renilla reference signal, replicate 2 = 14139; inactive.
Against Glut1 (Glucose transporter 1) [DRSC08378], the values are firefly Hh reporter signal, replicate 1 = 75061; firefly Hh reporter signal, replicate 2 = 47016; Renilla reference signal, replicate 1 = 2160; Renilla reference signal, replicate 2 = 3281; inactive.
Against Glut1 (Glucose transporter 1) [DRSC08662], the values are firefly Hh reporter signal, replicate 1 = 1.08e5; firefly Hh reporter signal, replicate 2 = 1.11e5; Renilla reference signal, replicate 1 = 4490; Renilla reference signal, replicate 2 = 4068; inactive.
After knock-down of CG9458 [DRSC16495], the record shows firefly Hh reporter signal, replicate 1 = 91971; firefly Hh reporter signal, replicate 2 = 1.50e5; Renilla reference signal, replicate 1 = 3211; Renilla reference signal, replicate 2 = 4168; inactive.
Depletion of CG11034 [DRSC02121] gave: firefly Hh reporter signal, replicate 1 = 1.08e5; firefly Hh reporter signal, replicate 2 = 60640; Renilla reference signal, replicate 1 = 3013; Renilla reference signal, replicate 2 = 5747; inactive.
For CG11034 [DRSC02122], the values are firefly Hh reporter signal, replicate 1 = 85466; firefly Hh reporter signal, replicate 2 = 44356; Renilla reference signal, replicate 1 = 2601; Renilla reference signal, replicate 2 = 4288; inactive.
Rif1 (Rap1 interacting factor 1) [DRSC05593] showed firefly Hh reporter signal, replicate 1 = 94256; firefly Hh reporter signal, replicate 2 = 2.41e5; Renilla reference signal, replicate 1 = 3782; Renilla reference signal, replicate 2 = 10865; inactive.
Depletion of mat (materazzi) [DRSC08376] gave: firefly Hh reporter signal, replicate 1 = 1.43e5; firefly Hh reporter signal, replicate 2 = 66416; Renilla reference signal, replicate 1 = 4835; Renilla reference signal, replicate 2 = 5131; inactive.
With knock-down of CG11178 [DRSC19396], the screen gave firefly Hh reporter signal, replicate 1 = 92951; firefly Hh reporter signal, replicate 2 = 87500; Renilla reference signal, replicate 1 = 1830; Renilla reference signal, replicate 2 = 1227; inactive.
Against RhoGEF3 (Rho guanine nucleotide exchange factor 3) [DRSC08266], the values are firefly Hh reporter signal, replicate 1 = 1.38e5; firefly Hh reporter signal, replicate 2 = 7.24e5; firefly Hh reporter signal, replicate 3 = 1.07e5; Renilla reference signal, replicate 1 = 5901; Renilla reference signal, replicate 2 = 41083; inactive.
Knock-down of RhoGEF3 (Rho guanine nucleotide exchange factor 3) [DRSC08351] came out at: firefly Hh reporter signal, replicate 1 = 1.03e5; firefly Hh reporter signal, replicate 2 = 34412; Renilla reference signal, replicate 1 = 3348; Renilla reference signal, replicate 2 = 2870; inactive.
After knock-down of RhoGEF3 (Rho guanine nucleotide exchange factor 3) [DRSC08352] the results were firefly Hh reporter signal, replicate 1 = 71144; firefly Hh reporter signal, replicate 2 = 31091; Renilla reference signal, replicate 1 = 2353; Renilla reference signal, replicate 2 = 2532; inactive.
Against RhoGEF3 (Rho guanine nucleotide exchange factor 3) [DRSC08353] the deposit lists firefly Hh reporter signal, replicate 1 = 81922; firefly Hh reporter signal, replicate 2 = 37384; Renilla reference signal, replicate 1 = 2921; Renilla reference signal, replicate 2 = 2549; inactive.
phtf [DRSC05023] scored firefly Hh reporter signal, replicate 1 = 98855; firefly Hh reporter signal, replicate 2 = 68774; Renilla reference signal, replicate 1 = 3683; Renilla reference signal, replicate 2 = 2045; inactive.
Knock-down of phyl (phyllopod) [DRSC07663] resulted in: firefly Hh reporter signal, replicate 1 = 91306; firefly Hh reporter signal, replicate 2 = 60696; Renilla reference signal, replicate 1 = 2437; Renilla reference signal, replicate 2 = 4281; inactive.

Individual results from the entries so far:
Dap160 (Dynamin associated protein 160) [DRSC03313], firefly Hh reporter signal, replicate 1: 62723
GstD2 (Glutathione S transferase D2) [DRSC16684], Renilla reference signal, replicate 2 = 2662
